According to article PMC12752627, “Discovery of a Potent and Selective TEAD Degrader with Durable Degradation Activity” (Advanced Science, 2025):
This continues a long series; more values of the same kind are listed elsewhere.

Tested on: 867 cancer cell lines
Assay: PRISM assay (barcoded cell line screening, 5 days);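 further: top test concentration 10 mM in eight-point dilution series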
Assay type: cell-based
Design: scale not given here
Experimental: The principle of the PRISM assay has been described elsewhere and was conducted as previously outlined by the PRISM team at the Broad Institute.^[ [14], [31] ^] In PRISM (MTS027) experiments, KG‐FP‐003 was tested across 867 different cancer cell lines. Cells were treated with eight concentration gradients, ranging from 4.6 nM to […], in triplicate dilutions over a period of five days. Each plate was treated with 20 µM bortezomib as a positive control and DMSO as a negative control. Three replicate experiments were performed for each compound. The resulting data were analyzed using GraphPad PRISM 9.5.

SMILES: CNC(=O)c1cc2c(c(F)c1-c1c(Cl)c(F)cc3c1C[C@@](CN[C@H]1CC[C@H](C(=O)N4CCC(CC5CCN(C(=O)COc6ccc(N7CCC(=O)NC7=O)c(C)c6)CC5)CC4)CC1)(c1ccccc1)O3)[C@@H](O)[C@@H](C)C2 [KG-FP-003]
- KG-FP-003-AUC (PANC1_PANCREAS, PR500): 0.97
- KG-FP-003-AUC (PANC0203_PANCREAS, PR500): 0.80
- KG-FP-003-AUC (PANC0327_PANCREAS, PR500): 0.68
- KG-FP-003-AUC (PANC0403_PANCREAS, PR500): 0.85
- KG-FP-003-AUC (PANC0504_PANCREAS, PR300): 0.41
- KG-FP-003-AUC (PANC0813_PANCREAS, PR500): 0.96
- KG-FP-003-AUC (PANC1005_PANCREAS, PR500): 0.72
- KG-FP-003-AUC (PATU8902_PANCREAS, PR500): 0.69
- KG-FP-003-AUC (PATU8988S_PANCREAS, PR500): 0.92
- KG-FP-003-AUC (PATU8988T_PANCREAS, PR500): 0.33
- KG-FP-003-AUC (PC3_PROSTATE, PR500): 1.00
- KG-FP-003-AUC (PC14_LUNG, PR500): 0.89
- KG-FP-003-AUC (PEA1_OVARY, PR300): 0.57
- KG-FP-003-AUC (PECAPJ15_UPPER_AERODIGESTIVE_TRACT, PR500): 0.69
- KG-FP-003-AUC (PECAPJ41CLONED2_UPPER_AERODIGESTIVE_TRACT, PR500): 0.74
- KG-FP-003-AUC (PECAPJ49_UPPER_AERODIGESTIVE_TRACT, PR500): 0.73
- KG-FP-003-AUC (PEDS005TSUSP_KIDNEY, PR300): 0.76
- KG-FP-003-AUC (PF382_HAEMATOPOIETIC_AND_LYMPHOID_TISSUE, PR300): 0.99
- KG-FP-003-AUC (PFSK1_CENTRAL_NERVOUS_SYSTEM, PR300): 0.97
- KG-FP-003-AUC (PK1_PANCREAS, PR500): 0.88
- KG-FP-003-AUC (PK8_PANCREAS, PR300): 0.92
- KG-FP-003-AUC (PK45H_PANCREAS, PR500): 0.72
- KG-FP-003-AUC (PK59_PANCREAS, PR500): 0.63
- KG-FP-003-AUC (PL21_HAEMATOPOIETIC_AND_LYMPHOID_TISSUE, PR300): 1.00
- KG-FP-003-AUC (PLCPRF5_LIVER, PR500): 0.87
- KG-FP-003-AUC (PMFKO14_LARGE_INTESTINE, PR300): 0.97
- KG-FP-003-AUC (PSN1_PANCREAS, PR500): 0.93
- KG-FP-003-AUC (QGP1_PANCREAS, PR500): 0.98
- KG-FP-003-AUC (RBE_BILIARY_TRACT, PR300): 1.00
- KG-FP-003-AUC (RCC10RGB_KIDNEY, PR500): 0.99
- KG-FP-003-AUC (RCHACV_HAEMATOPOIETIC_AND_LYMPHOID_TISSUE, PR300): 0.79
- KG-FP-003-AUC (RCK8_HAEMATOPOIETIC_AND_LYMPHOID_TISSUE, PR300): 0.96
- KG-FP-003-AUC (RCM1_LARGE_INTESTINE, PR500): 1.00
- KG-FP-003-AUC (RDES_BONE, PR300): 0.99
- KG-FP-003-AUC (RD_SOFT_TISSUE, PR300): 0.86
- KG-FP-003-AUC (RD_SOFT_TISSUE, PR500): 0.90
- KG-FP-003-AUC (RERFGC1B_STOMACH, PR300): 0.85
- KG-FP-003-AUC (RERFLCAD1_LUNG, PR500): 1.00
- KG-FP-003-AUC (RERFLCAD2_LUNG, PR500): 0.72
- KG-FP-003-AUC (RERFLCAI_LUNG, PR500): 0.59
- KG-FP-003-AUC (RERFLCKJ_LUNG, PR500): 0.99
- KG-FP-003-AUC (RERFLCMS_LUNG, PR500): 0.99
- KG-FP-003-AUC (RH4_SOFT_TISSUE, PR300): 0.83
- KG-FP-003-AUC (RH28_SOFT_TISSUE, PR300): 0.97
- KG-FP-003-AUC (RH30_SOFT_TISSUE, PR300): 0.99
- KG-FP-003-AUC (RH30_SOFT_TISSUE, PR500): 0.68
- KG-FP-003-AUC (RH36_SOFT_TISSUE, PR300): 0.67
- KG-FP-003-AUC (RHJT_SOFT_TISSUE, PR300): 0.68
- KG-FP-003-AUC (RI1_HAEMATOPOIETIC_AND_LYMPHOID_TISSUE, PR300): 0.82
- KG-FP-003-AUC (RKN_SOFT_TISSUE, PR500): 0.61
- KG-FP-003-AUC (RKO_LARGE_INTESTINE, PR500): 0.99
- KG-FP-003-AUC (RL952_ENDOMETRIUM, PR500): 0.92
- KG-FP-003-AUC (RL_HAEMATOPOIETIC_AND_LYMPHOID_TISSUE, PR300): 0.99
- KG-FP-003-AUC (RMGI_OVARY, PR500): 0.72
- KG-FP-003-AUC (RMSYM_SOFT_TISSUE, PR300): 0.99
- KG-FP-003-AUC (RMUGS_OVARY, PR500): 1.00
- KG-FP-003-AUC (RO82W1_THYROID, PR300): 0.66
- KG-FP-003-AUC (RPMI7951_SKIN, PR300): 0.72
- KG-FP-003-AUC (RPMI8402_HAEMATOPOIETIC_AND_LYMPHOID_TISSUE, PR300): 0.82
- KG-FP-003-AUC (RT4_URINARY_TRACT, PR500): 0.93
- KG-FP-003-AUC (RT112_URINARY_TRACT, PR500): 0.87
- KG-FP-003-AUC (RVH421_SKIN, PR500): 0.83
- KG-FP-003-AUC (S117_THYROID, PR500): 0.82
- KG-FP-003-AUC (SAOS2_BONE, PR300): 0.83
- KG-FP-003-AUC (SBC5_LUNG, PR500): 0.99
- KG-FP-003-AUC (SCABER_URINARY_TRACT, PR500): 0.66
- KG-FP-003-AUC (SCC3_HAEMATOPOIETIC_AND_LYMPHOID_TISSUE, PR300): 0.75
- KG-FP-003-AUC (SCC9_UPPER_AERODIGESTIVE_TRACT, PR300): 0.83
- KG-FP-003-AUC (SCC25_UPPER_AERODIGESTIVE_TRACT, PR500): 0.77
- KG-FP-003-AUC (SCLC21H_LUNG, PR300): 0.88
- KG-FP-003-AUC (SEM_HAEMATOPOIETIC_AND_LYMPHOID_TISSUE, PR300): 0.99
- KG-FP-003-AUC (SF126_CENTRAL_NERVOUS_SYSTEM, PR500): 0.95
- KG-FP-003-AUC (SF295_CENTRAL_NERVOUS_SYSTEM, PR500): 1.00
- KG-FP-003-AUC (SF539_CENTRAL_NERVOUS_SYSTEM, PR500): 0.99
- KG-FP-003-AUC (SG231_BILIARY_TRACT, PR300): 1.00
- KG-FP-003-AUC (SH4_SKIN, PR500): 0.76
- KG-FP-003-AUC (SH10TC_STOMACH, PR500): 0.67
- KG-FP-003-AUC (SHMAC5_PROSTATE, PR300): 0.80
- KG-FP-003-AUC (SHP77_LUNG, PR300): 0.99
- KG-FP-003-AUC (SIMA_AUTONOMIC_GANGLIA, PR300): 0.99
- KG-FP-003-AUC (SIMA_AUTONOMIC_GANGLIA, PR500): 1.00
- KG-FP-003-AUC (SISO_CERVIX, PR300): 0.69
- KG-FP-003-AUC (SJSA1_BONE, PR300): 0.68
- KG-FP-003-AUC (SJSA1_BONE, PR500): 0.82
- KG-FP-003-AUC (SKES1_BONE, PR300): 0.97
- KG-FP-003-AUC (SKES1_BONE, PR500): 0.99
- KG-FP-003-AUC (SKGII_ENDOMETRIUM, PR300): 0.88
- KG-FP-003-AUC (SKGI_ENDOMETRIUM, PR300): 0.86
- KG-FP-003-AUC (SKGT2_STOMACH, PR300): 0.99
- KG-FP-003-AUC (SKGT4_OESOPHAGUS, PR300): 0.74
- KG-FP-003-AUC (SKHEP1_LIVER, PR500): 0.37
- KG-FP-003-AUC (SKLMS1_SOFT_TISSUE, PR300): 0.92
- KG-FP-003-AUC (SKLU1_LUNG, PR500): 0.72
- KG-FP-003-AUC (SKM1_HAEMATOPOIETIC_AND_LYMPHOID_TISSUE, PR300): 1.00
- KG-FP-003-AUC (SKMEL2_SKIN, PR500): 0.99
- KG-FP-003-AUC (SKMEL3_SKIN, PR500): 1.00
